Among the test systems are Kuramochi; OVCAR3; OVCAR4.
Common to all, as to experiment: drug sensitivity score (DSS2, cytotoxicity, CellTox Green); higher = more cytotoxic / more sensitive; extreme values may be limits of the assay
What all share (conditions): 72 h; doses 0.5, 1, 5 µM

The values that follow come from the supplement of paper PMC12593923.

Where a name gives a salt, the structure may show the parent alone. Several reference drugs read as weak here; read low effects with care.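 OVCAR3, described as chemosensitive, is one of three high-grade serous ovarian cancer lines that differ in chemosensitivity. Toxicity was scaled from DMSO vehicle wells to fully lysed wells; scores came from fitted multi-dose response curves, and the authors treated scores above 5 as indicating drug sensitivity.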

Turning to `COc1cc([C@@H]2c3cc4c(cc3[C@@H](O[C@@H]3O[C@@H]5CO[C@@H](C)O[C@H]5[C@H](O)[C@H]3O)[C@H]3COC(=O)[C@H]23)OCO4)cc(OC)c1OP(=O)(O)O` [Etoposide phosphate], the drug sensitivity score in the test with Kuramochi, with OVCAR3 and in the test on OVCAR4 was 0 DSS in each case.

In the case of `CNC(=O)c1cc(Oc2ccc(NC(=O)Nc3ccc(Cl)c(C(F)(F)F)c3)cc2)ccn1` [Sorafenib], the drug sensitivity score in the test on Kuramochi, with OVCAR3 and in the test with OVCAR4 was 0 DSS throughout.

Turning to `CN(C)c1cc(NC(=O)CNC(C)(C)C)c(O)c2c1C[C@H]1C[C@H]3[C@H](N(C)C)C(=O)C(C(N)=O)=C(O)[C@@]3(O)C(=O)C1=C2O` [Tigecycline (tetramesylate)], the drug sensitivity score in the test on Kuramochi came to 0.2 DSS; in the test with OVCAR3, 0 DSS; with OVCAR4, 0 DSS.

For `O=C(c1ccc(F)c(F)c1Nc1ccc(I)cc1F)N1CC(O)([C@@H]2CCCCN2)C1` [Cobimetinib (hemifumarate)], the drug sensitivity score with Kuramochi, in the test with OVCAR3 and in the test on OVCAR4 was 0 DSS each time.

On to `COCCCOc1cc(C[C@@H](C[C@H](N)[C@@H](O)C[C@H](C(=O)NCC(C)(C)C(N)=O)C(C)C)C(C)C)ccc1OC` [Aliskiren (hemifumarate)], for which the drug sensitivity score in the test on Kuramochi turned out to be 0 DSS; with OVCAR3, 0.1 DSS; in the test on OVCAR4, 0 DSS.

`CC(C)(C)c1nc(-c2cccc(NS(=O)(=O)c3c(F)cccc3F)c2F)c(-c2ccnc(N)n2)s1` [Dabrafenib]: the drug sensitivity score in the test with Kuramochi, in the test with OVCAR3 and with OVCAR4 was 0 DSS throughout.

For `COc1c(O)cc2c(c1O)[C@@H]1O[C@H](CO)[C@@H](O)[C@H](O)[C@H]1OC2=O` [Bergenin], the drug sensitivity score with Kuramochi, with OVCAR3 and with OVCAR4 was 0 DSS throughout.

Turning to `N#CC[C@H](C1CCCC1)n1cc(-c2ncnc3[nH]ccc23)cn1` [Ruxolitinib (phosphate)], the drug sensitivity score in the test with Kuramochi, in the test with OVCAR3 and in the test on OVCAR4 was 0 DSS throughout.

Take `CCCCCCCCCCCC1=C(O)C(=O)C=C(O)C1=O` [Embelin]: the drug sensitivity score in the test on Kuramochi, with OVCAR3 and with OVCAR4 was 0 DSS in each case.

For `CC(C)=CCOc1ccc(/C=C/C(=O)c2ccc(OCC=C(C)C)cc2OCC(=O)O)cc1` [Sofalcone], the drug sensitivity score with Kuramochi, with OVCAR3 and in the test with OVCAR4 was 0 DSS in each case.

On to `CCCCC[C@H](O)/C=C/[C@@H]1[C@@H](C/C=C\CCCC(=O)O)[C@@H](O)C[C@H]1O` [Dinoprost (tromethamine salt)], for which the drug sensitivity score with Kuramochi, in the test on OVCAR3 and in the test with OVCAR4 was 0 DSS each time.

For `CCOC(=O)C1=C(C)NC(C)=C(C(=O)OC)C1c1cccc([N+](=O)[O-])c1` (stereo not given) [Nitrendipine], the drug sensitivity score in the test on Kuramochi, in the test with OVCAR3 and with OVCAR4 was 0 DSS throughout.

With `COc1cc([C@@H]2c3cc4c(cc3[C@@H](O[C@@H]3O[C@@H]5CO[C@@H](c6cccs6)O[C@H]5[C@H](O)[C@H]3O)[C@H]3COC(=O)[C@H]23)OCO4)cc(OC)c1O` [Teniposide], the drug sensitivity score turned out to be 1.4 DSS in the test with Kuramochi, 0.1 DSS with OVCAR3 and 0 DSS with OVCAR4.

For `O=C1C2CCN(CC2)C1(CO)CO` [PRIMA-1], the drug sensitivity score with Kuramochi, with OVCAR3 and in the test on OVCAR4 was 0 DSS in each case.

As to `CN(C)C(=N)NC(=N)N` [Metformin], the drug sensitivity score in the test on Kuramochi, with OVCAR3 and with OVCAR4 was 0 DSS in each case.

Take `CNC(=O)c1cc(Oc2ccc(NC(=O)Nc3ccc(Cl)c(C(F)(F)F)c3)c(F)c2)ccn1` [Regorafenib (Hydrochloride)]: the results for the drug sensitivity score with Kuramochi, in the test on OVCAR3 and in the test on OVCAR4 were 0 DSS, 0 DSS and 3.4 DSS, respectively.

In the case of `CC(=O)Oc1cc(C)c(OC(C)=O)c2ccccc12` [Vitamin K4], the drug sensitivity score is 0.1 DSS in the test on Kuramochi, 0 DSS in the test on OVCAR3 and 0 DSS in the test with OVCAR4.

As for `C[n+]1c2ccccc2nc2ccccc21` [Phenazine (methylsulfate)], the drug sensitivity score in the test on Kuramochi, in the test on OVCAR3 and in the test on OVCAR4 was 0 DSS throughout.

`CO[C@H]1C(=O)[C@]2(C)[C@@H](OC)C[C@H]3OC[C@@]3(OC(C)=O)[C@H]2[C@H](OC(=O)c2ccccc2)[C@]2(O)C[C@H](OC(=O)[C@H](O)[C@@H](NC(=O)OC(C)(C)C)c3ccccc3)C(C)=C1C2(C)C` [Cabazitaxel]: the drug sensitivity score in the test with Kuramochi was determined as 5.9 DSS; in the test with OVCAR3, 5.6 DSS; in the test with OVCAR4, 0 DSS.

Regarding `CCOC(=O)[C@H](Cc1ccc(F)cc1)NC(=O)[C@@H](N)Cc1ccc(N(CCCl)CCCl)cc1` [Melflufen (hydrochloride)], the drug sensitivity score with Kuramochi came out at 0.5 DSS; in the test on OVCAR3, 1.7 DSS; with OVCAR4, 1.4 DSS.

For `Nc1ncn([C@@H]2O[C@H](CO)[C@@H](O)[C@H]2O)c(=O)n1` [5-Azacytidine], the drug sensitivity score in the test with Kuramochi, with OVCAR3 and in the test with OVCAR4 was 0 DSS each time.

As for `CN(CCOc1ccc(CC2SC(=O)NC2=O)cc1)c1ccccn1` (stereo not given) [Rosiglitazone], the drug sensitivity score in the test with Kuramochi, in the test on OVCAR3 and with OVCAR4 was 0 DSS in each case.

Consider `CCCS(=O)(=O)Nc1ccc(F)c(C(=O)c2c[nH]c3ncc(-c4ccc(Cl)cc4)cc23)c1F` [Vemurafenib], for which the drug sensitivity score in the test on Kuramochi, in the test with OVCAR3 and with OVCAR4 was 0 DSS each time.

Turning to `Cn1c(=O)cc(N2CCC[C@@H](N)C2)n(Cc2ccccc2C#N)c1=O` [Alogliptin (Benzoate)], the drug sensitivity score in the test on Kuramochi, with OVCAR3 and in the test on OVCAR4 was 0 DSS in each case.

`C[C@@H](Oc1cc(-c2cnn(C3CCNCC3)c2)cnc1N)c1c(Cl)ccc(F)c1Cl` [Crizotinib]: the drug sensitivity score with Kuramochi, in the test with OVCAR3 and in the test with OVCAR4 was 0 DSS each time.

As to `CC(C)c1nc(CN(C)C(=O)N[C@H](C(=O)N[C@@H](Cc2ccccc2)C[C@H](O)[C@H](Cc2ccccc2)NC(=O)OCc2cncs2)C(C)C)cs1` [Ritonavir], the drug sensitivity score in the test with Kuramochi, in the test on OVCAR3 and in the test with OVCAR4 was 0 DSS in each case.

With `CN(C)C(=O)c1cc2cnc(Nc3ccc(N4CCNCC4)cn3)nc2n1C1CCCC1` [Ribociclib], the drug sensitivity score in the test on Kuramochi worked out at 0 DSS; in the test on OVCAR3, 0.7 DSS; with OVCAR4, 0 DSS.

As to `S=C(N/N=C1/CCCc2cccnc21)N1CCN(c2ccccn2)CC1` [COTI-2], the drug sensitivity score in the test with Kuramochi, in the test on OVCAR3 and with OVCAR4 was 0 DSS in each case.

`Nc1nc2c(ncn2COCCO)c(=O)[nH]1` [Acyclovir]: the drug sensitivity score in the test with Kuramochi, in the test on OVCAR3 and with OVCAR4 was 0 DSS in each case.

As to `O=C(Nc1nc2cccc(-c3ccc(CN4CCS(=O)(=O)CC4)cc3)n2n1)C1CC1` [Filgotinib], the drug sensitivity score in the test on Kuramochi, in the test on OVCAR3 and in the test on OVCAR4 was 0 DSS each time.

For `Cc1cnc(Nc2ccc(OCCN3CCCC3)cc2)nc1Nc1cccc(S(=O)(=O)NC(C)(C)C)c1` [Fedratinib], the drug sensitivity score was found to be 0.5 DSS in the test with Kuramochi, 0.2 DSS with OVCAR3 and 0 DSS in the test on OVCAR4.

Regarding `O=C1c2c(O)ccc(O)c2C(=O)c2c(NCCNCCO)ccc(NCCNCCO)c21` [Mitoxantrone (dihydrochloride)], the drug sensitivity score in the test with Kuramochi, in the test on OVCAR3 and with OVCAR4 was 0 DSS throughout.

As for `Cc1ncc([N+](=O)[O-])n1CCO` [Metronidazole], the drug sensitivity score with Kuramochi, with OVCAR3 and in the test with OVCAR4 was 0 DSS throughout.

In the case of `CCCCCCCC/C=C\CCCCCCCC(=O)O` [Oleic acid], the drug sensitivity score with Kuramochi, with OVCAR3 and in the test on OVCAR4 was 0 DSS in each case.

In the case of `CC[C@@]1(O)C[C@H](O[C@H]2C[C@H](N(C)C)[C@H](O[C@H]3C[C@H](O)[C@H](O[C@H]4CCC(=O)[C@H](C)O4)[C@H](C)O3)[C@H](C)O2)c2c(cc3c(c2O)C(=O)c2c(O)cccc2C3=O)[C@H]1C(=O)OC` [Aclacinomycin A hydrochloride], the drug sensitivity score with Kuramochi, in the test with OVCAR3 and in the test on OVCAR4 was 0 DSS in each case.

Regarding `Clc1ccc(C(c2ccccc2Cl)C(Cl)Cl)cc1` (stereo not given) [Mitotane], the drug sensitivity score in the test with Kuramochi, in the test with OVCAR3 and in the test with OVCAR4 was 0 DSS throughout.

For `Nc1nc(NC2CC2)c2ncn([C@H]3C=C[C@@H](CO)C3)c2n1` [Abacavir], the drug sensitivity score in the test on Kuramochi, in the test with OVCAR3 and in the test with OVCAR4 was 0 DSS throughout.

Turning to `C1COC(NC(C2CC2)C2CC2)=N1` [Rilmenidine (hemifumarate)], the drug sensitivity score in the test with Kuramochi, with OVCAR3 and in the test with OVCAR4 was 0 DSS throughout.

Consider `CC1=Nc2ccc(Cl)cc2S(=O)(=O)N1` [Diazoxide], for which the drug sensitivity score in the test on Kuramochi, with OVCAR3 and in the test on OVCAR4 was 0 DSS in each case.

Consider `CCOC(=O)C1=C(C)NC(C)=C(C(=O)OC)C1c1cccc(Cl)c1Cl` (stereo not given) [Felodipine], for which the values for the drug sensitivity score in the test on Kuramochi, with OVCAR3 and in the test with OVCAR4 were 4.6 DSS, 2.4 DSS and 2.9 DSS, respectively.
